From patent US10611795B2, “Methods for viral inactivation using eco-friendly detergents” (priority 2013, dated 2020) come the findings set out here.

The test system of series [1] is MAb1. Nature of the series: iCIEF charge heterogeneity after detergent treatment. Conditions: MAb1 HCCF, detergent mixing study.
Series [2] deals with MAb1. Nature of the series: Size exclusion chromatography (SEC) of product after detergent treatment. Conditions: MAb1 HCCF, detergent mixing study.
In series [3] the test system is MAb3. Described as above. Conditions: three hours ambient.
Another series relates to DNA. Nature of the series: DNA quantitation (TaqMan PCR assay). Conditions: three hours ambient.
Series [4] relates to MAb3. Nature of the series: iCIEF charge heterogeneity after detergent treatment. Conditions: three hours ambient.

Regarding Polysorbate 20, in the series on MAb1 [1], the “iCIEF % Acidic” value turned out to be 35.0%, the “iCIEF % Basic” value is 2.5% and the “iCIEF % Main” value was determined as 62.5%. Further, in the series with MAb1 [2], the “SEC % HMWS” value was found to be 7.3% and the “SEC % LMWS” value is recorded as 0.1%.

With Triton X-100 [reference compound], in the series with MAb3 [3] (MAb3 HCCF + Detergent), the “SEC-HMWS (%)” value was 2.2%, the “SEC-LMWS (%)” value was found to be 0.1% and the “SEC-main (%)” value was 97.7%. Also, in the series on MAb3 [3] (MAb3 N. ProA pool + detergent), the “SEC-HMWS (%)” value is 2.3%, the “SEC-LMWS (%)” value amounted to 0.1% and the “SEC-main (%)” value is 97.6%. Besides, the “DNA (ppm), HCCF + Detergent” value in the series on DNA (MAb3 HCCF) came out at 261 ppm. In the series with DNA (MAb3 adjusted protein A pool), the “DNA (ppm), Adj. ProA pool + Detergent” value is recorded as 2.1 ppm. Besides, in the series with MAb3 [4] (MAb3 HCCF + Detergent), the “iCIEF-acidic (%)” value worked out at 59.8%, the “iCIEF-basic (%)” value was 2.65% and the “iCIEF-main (%)” value is reported as 37.6%. In addition, in the series with MAb3 [4] (MAb3 N. ProA pool + detergent), the “iCIEF-acidic (%)” value stood at 51.1%, the “iCIEF-basic (%)” value is 3.51% and the “iCIEF-main (%)” value was determined as 45.4%.
